Measured values as given in publication PMC12406788.
Results are given in words; binding and its absence hold for the method and conditions named.

Chains of the proteins cited; added tags and fusions are not shown.
UniProt Q5T9C2: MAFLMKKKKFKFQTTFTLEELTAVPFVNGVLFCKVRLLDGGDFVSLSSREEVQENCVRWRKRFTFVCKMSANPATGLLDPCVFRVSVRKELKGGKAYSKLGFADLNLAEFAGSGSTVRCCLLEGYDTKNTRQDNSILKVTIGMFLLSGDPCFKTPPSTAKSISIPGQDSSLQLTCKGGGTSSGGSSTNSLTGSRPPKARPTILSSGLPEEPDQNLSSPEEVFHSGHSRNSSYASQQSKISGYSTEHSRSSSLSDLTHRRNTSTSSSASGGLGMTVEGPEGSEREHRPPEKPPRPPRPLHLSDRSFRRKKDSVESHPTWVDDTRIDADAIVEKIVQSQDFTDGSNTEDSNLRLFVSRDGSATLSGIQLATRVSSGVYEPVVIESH

Target: FAM102A-iRFP (human) (UniProt Q5T9C2)
Experiment: recruitment (relocalisation) in cells seen by fluorescence microscopy; co-expression in COS-7 cells, where BLTP2 alone is not concentrated at ER-PM contacts; FAM102A or FAM102B at the PM brings tagged BLTP2 to PM patches (ER-PM contacts); spinning-disk confocal; also seen in U2OS, MDA-MB-231 and HeLaM cells

binding: no binding
Substance: BLTP2^Halo-△FBM (BLTP2 deletion construct lacking the FAM-binding motif) (from UniProt Q14667-1)
